Experimental data published in article PMC10163288.
The other results are listed elsewhere or left out.

B1: il10ra_site1_sap_20_mot_HHH_b2_02116_af2_000000165_0001_41_55_H_._HHH_b1_04497_af2_0001_0000400017_0000001_0_0001 (protein)
chain: SSSSDELEERIEELLKELEKLVEEGDMEKVMRLAKEILHLLFRLGNPELVHELWKIAHAAYSSSS
B2: il10ra_site1_normal_mot_HHH_b2_07442_000000239_0001_40_54_H_._HHH_b2_02446_0001_0000300042_0000001_0 (protein)
chain: SSSSDLAREVYEALRRAAELDRNGNPEEVERLLEELLKELEELNDEFLLVLVESVRRIFKSSSSS
B3: il10ra_site1_normal_mot_HHH_b1_02397_af2_000000085_0001_39_57_H_._HHH_b1_04458_af2_0001_0000400029_0000001_0 (protein)
chain: SSSDLEEEIRELLEEVEELLKEGDHEEAARLLQELLRLIFRLGDAELLRILYELVRLLAELSSSS
B4: il10ra_site1_normal_mot_HHH_b2_05797_000000294_0001_1_19_H_._HHH_b1_05870_0001_0000100004_0000001_0 (protein)
chain: SSSSSELEQYAEATLRFAKALAEAGDPEAARFLLEAVLQVLEKENNEELLELVEKLLEEISSSSS
B5: il10ra_site1_normal_mot_HHH_b1_02397_af2_000000085_0001_39_57_H_._HHH_b1_04573_af2_0001_0000500005_0000001_0 (protein)
chain: SSSSDEEEEELEELLKRLEELIEEGDREEFARLVQELLRLAFRLSDPEVLQRVWELVREAASSSS
B6: il10ra_site1_sap_18_mot_HHH_b2_04275_000000272_0001_20_36_H_._HHH_b1_07345_af2_0001_0000300023_0000001_0_0001 (protein)
chain: TEEILEAVEELLRELNSPNAKALLYLIEHQREHGAPPETILRSLKAAARILGDPEVLRLIEEAEK
B7: il10ra_site1_normal_mot_HHH_b1_00999_000000080_0001_41_55_H_._HHH_b2_07534_af2_0001_0000400038_0000001_0 (protein)
chain: SSSSDEEEEELRELLELVEELLERGDPERASRVAQELLRLIFRLSDEEALKKLWELMKKYGSSSS
B8: il10ra_site1_sap_15_mot_HHH_b1_06912_af2_000000235_0001_1_15_H_._HHH_b1_05618_af2_0001_0000500055_0000001_0_0001 (protein)
chain: SSSSSSEEQEEFRRLEEELEEAKSAQEFYEILKRLIEVAVKANDPELERLVHELLRRFIHSSSSS
B9: il10ra_site1_sap_27_mot_HHH_b1_02881_000000027_0001_1_20_H_._HHH_b2_04581_0001_0000200009_0000001_0_0001 (protein)
chain: SSSSDAEKRIAELLHELMEAYKRGDKEEARELLRELEELAEELNNKALRWILEFMERLLNSSSSS
B10: il10ra_site1_sap_14_mot_2fa031a62b9321f410fa37cb4b35ac9e_0001_af2_000000160_0001_1_14_H_._HHH_b1_01441_af2_0001_0000100002_0000002_0_0001 (protein)
chain: SSSSSDEEEVEKLLEKAEEAAERGNPEEANKLLAEAVRLAYQARNEELLREIWEVVRRLGSSSSS
B11: il10ra_site1_normal_mot_HHH_b2_01310_000000089_0001_41_55_H_._ems_p1-15H-GBL-16H-GABBL-16H_0175_0001_0001_0002_af2_0001_0000100008_0000001_0 (protein)
chain: SSSSSDVVELAQEAVRFAFEKGDAEGLQRIMEVLKAFINGEISEEEASERLEEILEELRSSSSSS
B12: il10ra_site1_sap_18_mot_HHH_b2_01999_000000006_0001_1_18_H_._HHH_b2_08069_af2_0001_0000200010_0000001_0_0001_af2pred_0001 (protein)
chain: SSSSDLEADIRSAARAARLLLEAGDPEKAEEALRIAELSAELANNEELKEEIRRLEEEVRSSSSS
B13: il10ra_site1_sap_27_mot_HHH_b2_02567_af2_000000093_0001_41_57_H_._HHH_b1_03852_0001_0000400038_0000002_0_0001 (protein)
chain: SSSSDEDERYLELALHFAEALLEDGDPEAARLILKAAADIARKAGDEELLEEIERLLEEIGSSSS
B14: il10ra_site1_normal_mot_0cd074c2d6d3de76f1399c5a775575d2_0001_1_af2_000000000_0001_16_30_H_._HHH_b1_05697_af2_0001_0000400018_0000001_0 (protein)
chain: SSSSDEEELRELVEELVKELGLSEEAQERLELALEALLEQGVDEREIKRLLEIQARLLAFTSSSS
B15: il10ra_site1_normal_mot_HHH_b1_01879_000000050_0001_1_18_H_._HHH_b1_00727_af2_0001_0000600044_0000002_0_af2pred_0001 (protein)
chain: SSSSSEEVLRLLLEALKLIRRGDLEEAEEVLKEMERLAEELNDEQARRAVEVLKRLLEELGSSSS
B16: il10ra_site1_normal_mot_HHH_b2_03220_af2_000000223_0001_23_40_H_._HHH_b2_00330_0001_0000100005_0000002_1_af2pred_0001 (protein)
chain: SSSSDAREVQRLIREAWRLLREGNPEEAQKLLEEAEEIAKEAGNELLERLLERLRKEIENSSSSS
B17: il10ra_site1_normal_mot_HHH_b2_00612_000000251_0001_1_14_H_._HHH_b2_03072_0001_0000200008_0000002_0 (protein)
chain: SSSSDESTELARKAAEELSELEREGNEEEFERLAREVVEQLRELGNQLAAFSIEYLLRLAKSSSS
B18: il10ra_site1_normal_mot_HHH_b1_06125_000000022_0001_1_19_H_._HHH_b1_05627_0001_0000200015_0000002_0 (protein)
chain: SSSSDEEREEALELAREIFRLALRGNPEEAERLLEELRELVEKIGNPALEKAVRILEEALSSSSS

target: il10ra, Q13651; assay: yeast display titration

Binder | apparent Kd
B1 | inactive: no binding seen
B2 | inactive: no binding seen
B3 | inactive: no binding seen
B4 | inactive: no binding seen
B5 | inactive: no binding seen
B6 | inactive: no binding seen
B7 | inactive: no binding seen
B8 | inactive: no binding seen
B9 | inactive: no binding seen
B10 | inactive: no binding seen
B11 | inactive: no binding seen
B12 | inactive: no binding seen
B13 | inactive: no binding seen
B14 | inactive: no binding seen
B15 | inactive: no binding seen
B16 | inactive: no binding seen
B17 | inactive: no binding seen
B18 | inactive: no binding seen

2 consecutive records already listed:
Binder | apparent Kd
B8 | inactive: no binding seen
B9 | inactive: no binding seen
